Drawing on article PMC7753147, “High-throughput determination of protein affinities using unmodified peptide libraries in nanomolar scale” (iScience, 2020), this text covers binding for two molecules.

These are yes or no findings as the source states them, for the method shown. Some entries that bind do so weakly or less than the wild type.

Test [1] addresses GlyR β WT peptide 414…428 on the μSPOT positional-scan microarray. Description: peptide or protein array; μSPOT full positional scan of GlyR β 414-428 probed with recombinant gephE or FL-geph; intensities normalized to the WT sequence; both purified.
Test [2] has the same target. Description: peptide or protein array; μSPOT full positional scan of GlyR β 414-428 probed with native geph from tissue lysate (mouse brain lysate); only the target purified.

B1: full-length gephyrin (FL-geph), recombinant (protein, UniProt Q03555 1-768)
chain: MATEGMILTNHDHQIRVGVLTVSDSCFRNLAEDRSGINLKDLVQDPSLLGGTISAYKIVPDEIEEIKETLIDWCDEKELNLILTTGGTGFAPRDVTPEKFPTFPFCGLQKGATKEVIEREAPGMALAMLMGSLNVTPLGMLSRPVCGIRGKTLIINLPGSKKGSQECFQFILPALPHAIDLLRDAIVKVKEVHDELEDLPSPPPPLSPPPTTSPHKQTEDKGVQCEEEEEEKKDSGVASTEDSSSSHITAAALAAKIPDSIISRGVQVLPRDTASLSTTPSESPRAQATSRLSTASCPTPKQIRRPDESKGVASRVGSLKVQSRCSSKENILRASHSAVDITKVARRHRMSPFPLTSMDKAFITVLEMTPVLGTEIINYRDGMGRVLAQDVYAKDNLPPFPASVKDGYAVRAADGPGDRFIIGESQAGEQPTQTVMPGQVMRVTTGAPIPCGADAVVQVEDTELIRESDDGTEELEVRILVQARPGQDIRPIGHDIKRGECVLAKGTHMGPSEIGLLATVGVTEVEVNKFPVVAVMSTGNELLNPEDDLLPGKIRDSNRSTLLATIQEHGYPTINLGIVGDNPDDLLNALNEGISRADVIITSGGVSMGEKDYLKQVLDIDLHAQIHFGRVFMKPGLPTTFATLDIDGVRKIIFALPGNPVSAVVTCNLFVVPALRKMQGILDPRPTIIKARLSCDVKLDPRPEYHRCILTWHHQEPLPWAQSTGNQMSSRLMSMRSANGLLMLPPKTEQYVELHKGEVVDVMVIGRL
Turning to B1, the binding entry in test [1] was “binds”.

B2: native gephyrin within tissue lysate (protein, UniProt Q8BUV3 1-769)
chain: MATEGMILTNHDHQIRVGVLTVSDSCFRNLAEDRSGINLKDLVQDPSLLGGTISAYKIVPDEIEEIKETLIDWCDEKELNLILTTGGTGFAPRDVTPEATKEVIEREAPGMALAMLMGSLNVTPLGMLSRPVCGIRGKTLIINLPGSKKGSQECFQFILPALPHAIDLLRDAIVKVKEVHDELEDLPSPPPPLSPPPTTSPHKQTEDKGVQCEEEEEEKKDSGVASTEDSSSSHITAAALAAKIPDSIISRGVQVLPRDTASLSTTPSESPRAQATSRLSTASCPTPKQIRRPDESKGVASRVGSLKARLPSCSSTYSVSEVQSRCSSKENILRASHSAVDITKVARRHRMSPFPLTSMDKAFITVLEMTPVLGTEIINYRDGMGRVLAQDVYAKDNLPPFPASVKDGYAVRAADGPGDRFIIGESQAGEQPTQTVMPGQVMRVTTGAPIPCGADAVVQVEDTELIRESDDGTEELEVRILVQARPGQDIRPIGHDIKRGECVLAKGTHMGPSEIGLLATVGVTEVEVNKFPVVAVMSTGNELLNPEDDLLPGKIRDSNRSTLLATIQEHGYPTINLGIVGDNPDDLLNALNEGISRADVIITSGGVSMGEKDYLKQVLDIDLHAQIHFGRVFMKPGLPTTFATLDIDGVRKIIFALPGNPVSAVVTCNLFVVPALRKMQGILDPRPTIIKARLSCDVKLDPRPEYHRCILTWHHQEPLPWAQSTGNQMSSRLMSMRSANGLLMLPPKTEQYVELHKGEVVDVMVIGRL
For B2, the binding result in test [2] was “binds”.
